The supplement of paper PMC12067093, “Discovery and optimisation of a covalent ligand for TRIM25 and its application to targeted protein ubiquitination” (Chemical Science, 2025)
The list shows a part of the results.

The chains behind the UniProt entries cited, without tags or fusion partners. Where a name states a change or a piece, a line headed by the entry shows the natural chain unless it says otherwise.
UniProt P50395: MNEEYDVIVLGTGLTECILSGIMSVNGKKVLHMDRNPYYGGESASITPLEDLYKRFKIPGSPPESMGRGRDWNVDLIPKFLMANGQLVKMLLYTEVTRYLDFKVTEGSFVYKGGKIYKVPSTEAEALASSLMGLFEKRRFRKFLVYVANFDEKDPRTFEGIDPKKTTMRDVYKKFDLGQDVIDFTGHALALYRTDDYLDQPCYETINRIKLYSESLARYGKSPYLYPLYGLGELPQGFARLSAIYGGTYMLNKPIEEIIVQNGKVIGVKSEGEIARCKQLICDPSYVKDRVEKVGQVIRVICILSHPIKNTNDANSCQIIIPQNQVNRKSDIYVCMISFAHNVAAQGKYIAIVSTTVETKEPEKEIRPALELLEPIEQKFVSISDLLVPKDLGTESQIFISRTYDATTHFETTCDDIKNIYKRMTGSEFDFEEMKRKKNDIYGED
UniProt P51570: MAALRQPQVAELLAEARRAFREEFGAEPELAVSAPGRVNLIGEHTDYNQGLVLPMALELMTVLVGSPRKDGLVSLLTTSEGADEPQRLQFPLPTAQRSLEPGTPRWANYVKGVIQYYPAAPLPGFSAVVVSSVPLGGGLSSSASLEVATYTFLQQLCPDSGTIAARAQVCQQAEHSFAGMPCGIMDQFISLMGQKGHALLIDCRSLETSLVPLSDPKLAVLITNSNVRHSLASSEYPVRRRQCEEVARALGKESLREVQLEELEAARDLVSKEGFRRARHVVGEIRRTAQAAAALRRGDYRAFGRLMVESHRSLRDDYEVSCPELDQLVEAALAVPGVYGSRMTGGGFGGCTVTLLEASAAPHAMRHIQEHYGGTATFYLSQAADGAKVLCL
UniProt Q96C23: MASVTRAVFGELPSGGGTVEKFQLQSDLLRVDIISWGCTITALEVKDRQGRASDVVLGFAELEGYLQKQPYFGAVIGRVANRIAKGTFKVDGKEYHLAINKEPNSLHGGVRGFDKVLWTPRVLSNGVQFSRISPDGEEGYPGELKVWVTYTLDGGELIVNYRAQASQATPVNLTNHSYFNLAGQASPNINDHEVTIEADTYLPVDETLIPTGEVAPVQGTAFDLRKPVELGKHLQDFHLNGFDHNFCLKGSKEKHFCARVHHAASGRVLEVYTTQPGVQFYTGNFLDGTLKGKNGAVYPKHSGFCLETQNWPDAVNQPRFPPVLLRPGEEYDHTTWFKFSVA
UniProt Q14C86: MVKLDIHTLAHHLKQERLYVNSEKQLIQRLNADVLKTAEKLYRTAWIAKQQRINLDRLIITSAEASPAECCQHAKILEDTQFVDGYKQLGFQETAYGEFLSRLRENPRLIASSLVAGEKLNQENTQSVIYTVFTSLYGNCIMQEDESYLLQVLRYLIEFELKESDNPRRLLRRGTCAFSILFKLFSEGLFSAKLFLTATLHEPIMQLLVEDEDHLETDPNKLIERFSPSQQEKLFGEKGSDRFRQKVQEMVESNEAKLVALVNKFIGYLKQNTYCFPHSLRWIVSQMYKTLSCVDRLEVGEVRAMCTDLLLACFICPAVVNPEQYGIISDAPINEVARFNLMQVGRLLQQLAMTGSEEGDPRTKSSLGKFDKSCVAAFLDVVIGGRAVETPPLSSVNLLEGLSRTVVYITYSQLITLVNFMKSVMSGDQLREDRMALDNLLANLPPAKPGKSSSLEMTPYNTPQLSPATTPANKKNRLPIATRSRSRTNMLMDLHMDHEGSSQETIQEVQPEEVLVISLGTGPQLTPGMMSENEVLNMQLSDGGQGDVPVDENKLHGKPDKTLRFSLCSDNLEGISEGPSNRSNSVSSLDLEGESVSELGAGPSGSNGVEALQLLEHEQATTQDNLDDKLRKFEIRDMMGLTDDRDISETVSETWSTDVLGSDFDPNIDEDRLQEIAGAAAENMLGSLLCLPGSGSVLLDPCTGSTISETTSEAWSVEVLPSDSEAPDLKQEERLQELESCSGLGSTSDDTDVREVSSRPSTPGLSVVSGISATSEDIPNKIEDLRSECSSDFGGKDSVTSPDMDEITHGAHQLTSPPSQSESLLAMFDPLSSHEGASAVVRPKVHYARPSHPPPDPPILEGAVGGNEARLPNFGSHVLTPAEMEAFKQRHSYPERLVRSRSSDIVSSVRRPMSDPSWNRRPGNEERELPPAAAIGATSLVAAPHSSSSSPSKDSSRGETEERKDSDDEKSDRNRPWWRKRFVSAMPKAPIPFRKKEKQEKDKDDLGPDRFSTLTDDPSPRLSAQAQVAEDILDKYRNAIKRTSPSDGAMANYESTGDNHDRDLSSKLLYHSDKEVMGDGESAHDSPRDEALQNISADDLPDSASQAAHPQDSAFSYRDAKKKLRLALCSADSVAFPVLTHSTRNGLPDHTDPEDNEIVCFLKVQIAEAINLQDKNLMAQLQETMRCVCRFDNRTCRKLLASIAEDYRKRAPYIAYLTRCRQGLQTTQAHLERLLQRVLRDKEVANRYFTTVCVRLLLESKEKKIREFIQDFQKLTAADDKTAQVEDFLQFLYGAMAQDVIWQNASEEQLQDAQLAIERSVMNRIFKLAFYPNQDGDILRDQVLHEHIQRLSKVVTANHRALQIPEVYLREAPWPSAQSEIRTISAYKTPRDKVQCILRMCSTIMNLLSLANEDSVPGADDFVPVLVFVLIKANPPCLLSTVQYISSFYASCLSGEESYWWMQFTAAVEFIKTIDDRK
UniProt O75420: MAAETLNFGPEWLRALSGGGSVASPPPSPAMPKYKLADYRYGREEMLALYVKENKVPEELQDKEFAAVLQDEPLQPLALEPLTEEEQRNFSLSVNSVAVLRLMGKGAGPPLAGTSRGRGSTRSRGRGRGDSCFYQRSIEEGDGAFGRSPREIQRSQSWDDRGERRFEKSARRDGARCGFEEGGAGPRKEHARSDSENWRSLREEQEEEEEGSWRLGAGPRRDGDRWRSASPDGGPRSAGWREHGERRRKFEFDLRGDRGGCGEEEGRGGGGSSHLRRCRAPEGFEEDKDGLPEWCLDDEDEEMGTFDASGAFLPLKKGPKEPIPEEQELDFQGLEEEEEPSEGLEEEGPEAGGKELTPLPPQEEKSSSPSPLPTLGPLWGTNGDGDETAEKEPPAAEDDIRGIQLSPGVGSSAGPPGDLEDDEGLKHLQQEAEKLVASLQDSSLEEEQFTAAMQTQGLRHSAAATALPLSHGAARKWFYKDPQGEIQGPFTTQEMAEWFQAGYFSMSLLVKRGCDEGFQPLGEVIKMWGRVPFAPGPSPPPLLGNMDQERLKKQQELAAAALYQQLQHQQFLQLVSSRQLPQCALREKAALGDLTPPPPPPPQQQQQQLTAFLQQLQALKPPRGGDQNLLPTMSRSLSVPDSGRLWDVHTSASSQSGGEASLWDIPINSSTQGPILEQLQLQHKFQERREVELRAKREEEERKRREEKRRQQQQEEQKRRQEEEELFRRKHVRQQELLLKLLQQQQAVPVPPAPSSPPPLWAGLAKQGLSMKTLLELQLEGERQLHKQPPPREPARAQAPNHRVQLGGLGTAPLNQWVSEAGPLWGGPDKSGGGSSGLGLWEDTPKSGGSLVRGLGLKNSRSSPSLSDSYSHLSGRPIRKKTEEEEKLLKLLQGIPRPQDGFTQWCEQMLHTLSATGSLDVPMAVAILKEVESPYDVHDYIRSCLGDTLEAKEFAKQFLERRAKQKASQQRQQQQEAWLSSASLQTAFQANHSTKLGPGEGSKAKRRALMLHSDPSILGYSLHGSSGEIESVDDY
UniProt Q92947: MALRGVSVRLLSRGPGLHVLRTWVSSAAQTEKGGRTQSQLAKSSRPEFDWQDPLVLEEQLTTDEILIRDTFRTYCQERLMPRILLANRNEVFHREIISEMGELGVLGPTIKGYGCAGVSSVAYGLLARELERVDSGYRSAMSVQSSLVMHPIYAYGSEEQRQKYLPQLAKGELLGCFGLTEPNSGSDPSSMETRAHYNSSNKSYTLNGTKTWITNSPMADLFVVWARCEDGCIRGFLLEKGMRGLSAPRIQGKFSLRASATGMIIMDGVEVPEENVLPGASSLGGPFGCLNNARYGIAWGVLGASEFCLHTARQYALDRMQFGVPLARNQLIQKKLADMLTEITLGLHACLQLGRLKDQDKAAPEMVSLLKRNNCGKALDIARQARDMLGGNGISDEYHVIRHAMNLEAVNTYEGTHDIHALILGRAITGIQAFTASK
UniProt P31150: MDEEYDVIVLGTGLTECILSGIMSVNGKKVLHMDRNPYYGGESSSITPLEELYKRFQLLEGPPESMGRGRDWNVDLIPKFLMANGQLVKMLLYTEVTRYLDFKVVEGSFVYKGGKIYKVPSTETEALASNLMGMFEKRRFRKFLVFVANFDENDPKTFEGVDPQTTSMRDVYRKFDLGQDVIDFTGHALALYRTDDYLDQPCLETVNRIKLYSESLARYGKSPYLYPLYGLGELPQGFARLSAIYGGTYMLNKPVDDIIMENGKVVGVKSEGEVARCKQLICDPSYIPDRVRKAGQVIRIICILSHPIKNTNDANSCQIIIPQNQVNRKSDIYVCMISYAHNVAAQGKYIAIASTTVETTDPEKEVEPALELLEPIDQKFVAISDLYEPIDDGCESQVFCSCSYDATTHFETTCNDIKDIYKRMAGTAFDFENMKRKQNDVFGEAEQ
UniProt Q8TEQ6: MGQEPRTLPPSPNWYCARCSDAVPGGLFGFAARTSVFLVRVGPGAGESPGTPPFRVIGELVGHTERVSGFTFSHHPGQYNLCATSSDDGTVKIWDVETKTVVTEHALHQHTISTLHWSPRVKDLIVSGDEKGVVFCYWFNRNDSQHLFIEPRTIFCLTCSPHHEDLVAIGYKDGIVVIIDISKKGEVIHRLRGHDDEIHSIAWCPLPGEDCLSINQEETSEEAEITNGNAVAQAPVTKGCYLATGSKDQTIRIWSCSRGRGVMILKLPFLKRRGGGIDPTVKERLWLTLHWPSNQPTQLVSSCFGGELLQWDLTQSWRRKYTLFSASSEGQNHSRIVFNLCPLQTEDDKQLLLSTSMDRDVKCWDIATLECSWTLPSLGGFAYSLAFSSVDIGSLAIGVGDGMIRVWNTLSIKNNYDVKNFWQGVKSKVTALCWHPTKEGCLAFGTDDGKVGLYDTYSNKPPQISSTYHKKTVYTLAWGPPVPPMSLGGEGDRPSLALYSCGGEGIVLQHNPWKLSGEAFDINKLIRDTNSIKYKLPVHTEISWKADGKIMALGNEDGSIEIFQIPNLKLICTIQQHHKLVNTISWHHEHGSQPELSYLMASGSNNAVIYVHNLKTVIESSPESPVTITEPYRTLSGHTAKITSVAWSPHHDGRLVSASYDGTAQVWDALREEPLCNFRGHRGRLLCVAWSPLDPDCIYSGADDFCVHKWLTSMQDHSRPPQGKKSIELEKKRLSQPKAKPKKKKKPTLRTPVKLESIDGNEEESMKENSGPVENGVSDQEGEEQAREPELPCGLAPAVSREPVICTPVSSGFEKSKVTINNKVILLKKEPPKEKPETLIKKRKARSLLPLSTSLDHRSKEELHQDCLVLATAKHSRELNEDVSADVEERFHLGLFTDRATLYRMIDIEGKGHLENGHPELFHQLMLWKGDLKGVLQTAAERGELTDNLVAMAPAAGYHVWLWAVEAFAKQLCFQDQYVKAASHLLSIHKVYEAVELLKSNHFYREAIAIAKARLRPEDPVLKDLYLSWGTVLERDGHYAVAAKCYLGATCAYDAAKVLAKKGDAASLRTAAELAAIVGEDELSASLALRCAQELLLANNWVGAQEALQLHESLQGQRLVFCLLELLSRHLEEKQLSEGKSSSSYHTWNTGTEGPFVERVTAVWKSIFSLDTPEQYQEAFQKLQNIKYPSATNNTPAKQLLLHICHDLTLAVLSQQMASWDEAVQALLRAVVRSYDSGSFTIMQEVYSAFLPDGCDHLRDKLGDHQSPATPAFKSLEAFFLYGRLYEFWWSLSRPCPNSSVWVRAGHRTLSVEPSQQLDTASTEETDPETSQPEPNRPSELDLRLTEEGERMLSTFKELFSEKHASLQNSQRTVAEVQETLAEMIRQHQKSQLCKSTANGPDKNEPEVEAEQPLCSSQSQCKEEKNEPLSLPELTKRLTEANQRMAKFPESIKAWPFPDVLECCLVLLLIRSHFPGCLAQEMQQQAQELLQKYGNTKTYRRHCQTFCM
UniProt Q01415: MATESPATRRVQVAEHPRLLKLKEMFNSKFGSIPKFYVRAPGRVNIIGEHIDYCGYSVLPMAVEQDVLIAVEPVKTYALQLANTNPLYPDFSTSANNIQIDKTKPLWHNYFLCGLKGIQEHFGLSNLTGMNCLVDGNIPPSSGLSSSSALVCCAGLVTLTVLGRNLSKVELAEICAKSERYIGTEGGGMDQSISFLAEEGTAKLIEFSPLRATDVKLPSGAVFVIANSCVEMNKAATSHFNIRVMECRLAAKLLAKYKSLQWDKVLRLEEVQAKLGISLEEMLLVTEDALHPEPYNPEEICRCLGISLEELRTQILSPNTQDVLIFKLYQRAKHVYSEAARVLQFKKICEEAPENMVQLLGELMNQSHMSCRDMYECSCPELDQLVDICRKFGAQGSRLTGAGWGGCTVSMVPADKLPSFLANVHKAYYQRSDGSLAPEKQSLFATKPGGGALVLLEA

Compound: CC1Cc2ccccc2N1C(=O)C1CCCN(C1)C(=O)CCl (mixture of isomers) [TRIM25 ligand 11 (diastereomer mixture)]
Experiment: probe-labelled cysteine peptide fold change vs DMSO (competition) (log2 fold change); higher = less target engagement (more negative = stronger competition)
Conditions: THP-1, incubation time: 4 h
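Also: competitive chemoproteomic profiling in live THP-1 cells with an iodoacetamide desthiobiotin (IA-DTB) probe, comparing probe-labelled peptide intensities in compound-treated cells against DMSO-treated controls.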

Row | Target | probe-labelled cysteine peptide fold change (10 µM) | probe-labelled cysteine peptide fold change (50 µM)
1 | GAK_O14976_87_AIIQEVCFMK (UniProt O14976) | -0.0317 | -0.101
2 | GIPC3_Q8TF64_152+168_IEAVCVGDSIEAINDHSIVGCR (UniProt Q8TF64) | -0.067 | -0.00794
3 | GDI2_P50395_282_QLICDPSYVK (UniProt P50395) | -0.0657 | 0.0312
4 | GALK1_P51570_243_QCEEVAR (UniProt P51570) | 0.0249 | 0.153
5 | GATD1_Q8NB37_133_ILQHFHSESKPICAVGHGVAALCCATNEDR (UniProt Q8NB37) | -0.0626 | -0.216
6 | GBF1_Q92538_1707_IDCFLPHLRDELFK (UniProt Q92538) | -0.0184 | -0.0975
7 | GDI2_P50395_202_TDDYLDQPCYETINR (UniProt P50395) | 0.127 | -0.0387
8 | GART_P22102_134_AFTKPEEACSFILSADFPALVVK (UniProt P22102) | -0.00392 | -0.0167
9 | GATD1_Q8NB37_94_YHALLIPSCPGALTDLASSGSLAR (UniProt Q8NB37) | -0.12 | -0.0933
10 | GALM_Q96C23_305_HSGFCLETQNWPDAVNQPR (UniProt Q96C23) | -0.111 | 0.186
11 | GAPVD1_Q14C86_1129_LALCSADSVAFPVLTHSTR (UniProt Q14C86) | 0.0263 | -0.0952
12 | GAPVD1_Q14C86_741_LQELESCSGLGSTSDDTDVR (UniProt Q14C86) | 0.176 | -0.159
13 | GIGYF1_O75420_261_GGCGEEEGR (UniProt O75420) | 0.11 | 0.15
14 | GCDH_Q92947_308_YGIAWGVLGASEFCLHTAR (UniProt Q92947) | -0.0176 | 0.183
15 | GDI1_P31150_282_QLICDPSYIPDR (UniProt P31150) | 0.0147 | -0.064
16 | GEMIN5_Q8TEQ6_572_LICTIQQHHK (UniProt Q8TEQ6) | 0.154 | 0.0754
17 | GGPS1_O95749_138_DNYTCPTEEEYK (UniProt O95749) | 0.147 | 0.142
18 | GANAB_Q14697_423_WNYRDEADVLEVDQGFDDHNLPCDVIWLDIEHADGKR (UniProt Q14697) | -0.0428 | 0.0188
19 | GATM_P50440_410_NANSLGGGFHCWTCDVR (UniProt P50440) | 0.0413 | 0.182

Some of the entries so far, tab-delimited.
Row	Target	probe-labelled cysteine peptide fold change (10 µM)	probe-labelled cysteine peptide fold change (50 µM)
10	GALM_Q96C23_305_HSGFCLETQNWPDAVNQPR (UniProt Q96C23)	-0.111	0.186
11	GAPVD1_Q14C86_1129_LALCSADSVAFPVLTHSTR (UniProt Q14C86)	0.0263	-0.0952
12	GAPVD1_Q14C86_741_LQELESCSGLGSTSDDTDVR (UniProt Q14C86)	0.176	-0.159
13	GIGYF1_O75420_261_GGCGEEEGR (UniProt O75420)	0.11	0.15
14	GCDH_Q92947_308_YGIAWGVLGASEFCLHTAR (UniProt Q92947)	-0.0176	0.183
15	GDI1_P31150_282_QLICDPSYIPDR (UniProt P31150)	0.0147	-0.064
16	GEMIN5_Q8TEQ6_572_LICTIQQHHK (UniProt Q8TEQ6)	0.154	0.0754

(continued)

Row | Target | probe-labelled cysteine peptide fold change (10 µM) | probe-labelled cysteine peptide fold change (50 µM)
20 | GALNT2_Q10471_229_VLTFLDSHCECNEHWLEPLLER (UniProt Q10471) | 0.0588 | 0.0629
21 | GALNT1_Q10472_459_VGIFNCHGMGGNQVFSYTANK (UniProt Q10472) | -0.125 | -0.0381
22 | GIT1_Q9Y2X7_122_LPCRDDDGVTAK (UniProt Q9Y2X7) | -0.0269 | -0.0357
23 | GEMIN2_O14893_264_DDERVPALNLLICLVSR (UniProt O14893) | 0.0933 | -0.181
24 | GAPVD1_Q14C86_1253_YFTTVCVR (UniProt Q14C86) | 0.0755 | 0.156
25 | GAPDH_P04406_247_VPTANVSVVDLTCRLEK (UniProt P04406) | -0.778 | -0.389
26 | GALK2_Q01415_303_CLGISLEELR (UniProt Q01415) | 0.063 | 0.191
27 | GDI2_P50395_335_KSDIYVCMISFAHNVAAQGK (UniProt P50395) | 0.0667 | 0.113
28 | GALT_P07902_75_HDPLNPLCPGAIR (UniProt P07902) | 0.0699 | -0.0264
29 | GALNT7_Q86SF2_545_GFETAYCIDSMGK (UniProt Q86SF2) | -0.00732 | 0.0308
30 | GCC2_Q8IWJ2_817+826_CLQEESVVQCEELK (UniProt Q8IWJ2) | -0.115 | -0.234
31 | GARS_P41250_466+471_SCYDLSCHAR (UniProt P41250) | 0.0931 | -0.0052
32 | GBF1_Q92538_1430_IFVEASLNGGCK (UniProt Q92538) | -0.0258 | -0.122
33 | GANAB_Q14697_822_RSSECMKDDPITLFVALSPQGTAQGELFLDDGHTFNYQTR (UniProt Q14697) | -0.296 | -0.0748
34 | GCN1_Q92616_1235_CGLALALNK (UniProt Q92616) | -0.0728 | -0.138
35 | GART_P22102_941_GSNAHEQALETGVTVTGCTVHFVAEDVDAGQIILQEAVPVKR (UniProt P22102) | -0.0918 | 0.156
36 | GART_P22102_733_TFNCGVGAVLVVSK (UniProt P22102) | -0.0325 | 0.03
37 | GFI1_Q99684_398+401_HTGFKPFGCDLCGK (UniProt Q99684) | -0.00152 | 0.171
38 | GAPVD1_Q14C86_789_IEDLRSECSSDFGGK (UniProt Q14C86) | -0.0753 | -0.101
